Test [1] deals with T1, TMEM100 (transmembrane protein 100), precipitated with anti-TMEM100 (mouse (endogenous in PVECs)) (UniProt Q9CQG9).
T1 sequence: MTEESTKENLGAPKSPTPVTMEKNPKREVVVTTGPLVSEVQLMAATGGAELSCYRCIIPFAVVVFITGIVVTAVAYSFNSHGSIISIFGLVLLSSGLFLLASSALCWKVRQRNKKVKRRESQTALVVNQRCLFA
As to the kind of experiment: co-IP.

Chains of the proteins cited; added tags and fusions are not shown.
UniProt P08752: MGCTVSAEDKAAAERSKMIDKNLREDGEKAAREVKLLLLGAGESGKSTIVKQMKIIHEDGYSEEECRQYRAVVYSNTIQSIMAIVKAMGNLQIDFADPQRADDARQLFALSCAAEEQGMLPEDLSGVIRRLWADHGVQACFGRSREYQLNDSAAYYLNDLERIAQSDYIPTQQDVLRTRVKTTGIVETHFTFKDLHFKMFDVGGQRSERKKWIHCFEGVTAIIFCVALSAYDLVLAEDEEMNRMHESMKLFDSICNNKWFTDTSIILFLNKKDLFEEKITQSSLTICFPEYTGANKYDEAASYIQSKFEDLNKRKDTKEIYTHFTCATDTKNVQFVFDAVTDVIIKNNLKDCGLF

In test [2] the target is T2, PRDX1 (mouse (endogenous in PVECs)) (UniProt P35700).
T2 sequence: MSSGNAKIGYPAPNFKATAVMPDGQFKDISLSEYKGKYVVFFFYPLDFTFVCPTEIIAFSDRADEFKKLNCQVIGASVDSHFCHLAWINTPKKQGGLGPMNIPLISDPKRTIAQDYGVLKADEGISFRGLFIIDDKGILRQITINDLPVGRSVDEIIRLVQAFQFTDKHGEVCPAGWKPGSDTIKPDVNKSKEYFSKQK
As to the kind of experiment: co-IP.

Results are given in words; binding and its absence hold for the method and conditions named. Binding seen in cells or lysates may run through a third protein. Some binding calls cover weakened binding; strength is not graded here.

With GNAI2 (from UniProt P08752 1-355), the binding result in test [1] and in test [2] was “binds” throughout.

Source of the values: article doi:10.1101/2025.10.24.684325.
